PMC12655351, “Synthesis and Anticancer Activity Evaluation of New 5-((5-Nitrofuran-2-yl)allylidene)-2-thioxo-4-thiazolidinones” (Pharmaceuticals, 2025)

Key:
[1] = tested on: Leukemia; settings: Leukemia subpanel; ratio GI50 / IC50
[2] = tested on: Colon cancer; experiment: NCI-60 SRB screen, subpanel; settings: for SI (GI50): ratio CC50 / IC50; for SI (LC50): ratio IC50 / GI50

Structure (SMILES)	SI (LC50) [1]	SI (GI50) [2]	SI (LC50) [2]
O=C(O)CCN1C(=O)/C(=C/C=C/c2ccc([N+](=O)[O-])o2)SC1=S [12b, 3-((Z)-5-((E)-3-(5-Nitrofuran-2-yl)allylidene)-4-oxo-2-thioxothiazolidin-3-yl)propanoic acid]	0.20	1.10	5.52
O=C(O)C(c1ccccc1)N1C(=O)/C(=C/C=C/c2ccc([N+](=O)[O-])o2)SC1=S (stereo not drawn) [9b, 2-((Z)-5-((E)-3-(5-Nitrofuran-2-yl)allylidene)-4-oxo-2-thioxothiazolidin-3-yl)-2-phenylacetic acid]	0.63	1.34	0.95
O=C(O)CCCN1C(=O)/C(=C/C=C/c2ccc([N+](=O)[O-])o2)SC1=S [13b, 4-((Z)-5-((E)-3-(5-Nitrofuran-2-yl)allylidene)-4-oxo-2-thioxothiazolidin-3-yl)butanoic acid]	0.22	3.10	1.58
CCCCC(C(=O)O)N1C(=O)/C(=C/C=C/c2ccc([N+](=O)[O-])o2)SC1=S (stereo not drawn) [6b, 2-((Z)-5-((E)-3-(5-nitrofuran-2-yl)allylidene)-4-oxo-2-thioxothiazolidin-3-yl)hexanoic acid]	0.29	1.27	4.28
CCCC(C(=O)O)N1C(=O)/C(=C/C=C/c2ccc([N+](=O)[O-])o2)SC1=S (stereo not drawn) [4b, 2-((Z)-5-((E)-3-(5-Nitrofuran-2-yl)allylidene)-4-oxo-2-thioxothiazolidin-3-yl)pentanoic acid]	0.28	1.25	4.30
O=C(O)CCCCCN1C(=O)/C(=C/C=C/c2ccc([N+](=O)[O-])o2)SC1=S [14b, 6-((Z)-5-((E)-3-(5-nitrofuran-2-yl)allylidene)-4-oxo-2-thioxothiazolidin-3-yl)hexanoic acid]	0.28	1.26	1.55
CC(C)C(C(=O)O)N1C(=O)/C(=C/C=C/c2ccc([N+](=O)[O-])o2)SC1=S (stereo not drawn) [5b, 3-Methyl-2-((Z)-5-((E)-3-(5-nitrofuran-2-yl)allylidene)-4-oxo-2-thioxothiazolidin-3-yl)butanoic acid]	0.22	1.10	5.52
